From publication PMC10589313 (Nature Communications, 2023)
Several values for one entry are separate records, joined by “and”; a condition that tells them apart may be missing. Equal values may be shown once. Further values from the same series stand in other lists.

Sequences of proteins named here, by UniProt entry; tags and fusion partners are left off.
UniProt Q9H3N8, whole entry F344I: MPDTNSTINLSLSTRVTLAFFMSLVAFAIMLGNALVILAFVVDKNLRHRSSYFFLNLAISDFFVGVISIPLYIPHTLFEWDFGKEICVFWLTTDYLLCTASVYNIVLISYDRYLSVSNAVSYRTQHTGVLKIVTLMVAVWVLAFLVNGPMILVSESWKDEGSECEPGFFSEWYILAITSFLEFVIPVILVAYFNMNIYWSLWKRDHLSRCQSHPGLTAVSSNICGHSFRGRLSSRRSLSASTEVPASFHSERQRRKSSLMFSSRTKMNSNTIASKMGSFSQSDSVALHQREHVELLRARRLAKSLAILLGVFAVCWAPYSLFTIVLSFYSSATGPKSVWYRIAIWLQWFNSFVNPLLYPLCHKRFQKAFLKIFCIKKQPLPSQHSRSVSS
UniProt Q9H3N8, whole entry C98A: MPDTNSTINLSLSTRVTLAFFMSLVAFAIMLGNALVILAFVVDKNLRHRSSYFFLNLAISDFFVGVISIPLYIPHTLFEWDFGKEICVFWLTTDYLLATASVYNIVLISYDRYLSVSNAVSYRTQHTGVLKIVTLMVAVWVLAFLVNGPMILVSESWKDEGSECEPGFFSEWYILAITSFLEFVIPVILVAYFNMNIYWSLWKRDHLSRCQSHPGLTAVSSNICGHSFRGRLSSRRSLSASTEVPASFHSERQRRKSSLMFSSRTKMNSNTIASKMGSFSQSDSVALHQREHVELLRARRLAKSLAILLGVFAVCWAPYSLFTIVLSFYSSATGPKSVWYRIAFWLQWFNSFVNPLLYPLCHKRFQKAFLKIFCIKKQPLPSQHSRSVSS
UniProt Q9H3N8, whole entry Q347A: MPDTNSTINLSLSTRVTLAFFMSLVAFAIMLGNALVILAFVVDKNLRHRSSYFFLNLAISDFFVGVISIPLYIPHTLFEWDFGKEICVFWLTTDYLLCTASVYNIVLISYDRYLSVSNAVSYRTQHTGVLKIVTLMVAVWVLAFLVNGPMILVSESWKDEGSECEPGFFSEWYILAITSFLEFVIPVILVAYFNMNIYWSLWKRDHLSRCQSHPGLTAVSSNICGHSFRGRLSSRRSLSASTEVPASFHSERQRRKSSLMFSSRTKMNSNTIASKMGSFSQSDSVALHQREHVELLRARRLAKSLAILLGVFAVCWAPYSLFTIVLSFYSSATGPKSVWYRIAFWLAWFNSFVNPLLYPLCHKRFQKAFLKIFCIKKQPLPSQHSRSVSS
UniProt Q9H3N8, whole entry N147A: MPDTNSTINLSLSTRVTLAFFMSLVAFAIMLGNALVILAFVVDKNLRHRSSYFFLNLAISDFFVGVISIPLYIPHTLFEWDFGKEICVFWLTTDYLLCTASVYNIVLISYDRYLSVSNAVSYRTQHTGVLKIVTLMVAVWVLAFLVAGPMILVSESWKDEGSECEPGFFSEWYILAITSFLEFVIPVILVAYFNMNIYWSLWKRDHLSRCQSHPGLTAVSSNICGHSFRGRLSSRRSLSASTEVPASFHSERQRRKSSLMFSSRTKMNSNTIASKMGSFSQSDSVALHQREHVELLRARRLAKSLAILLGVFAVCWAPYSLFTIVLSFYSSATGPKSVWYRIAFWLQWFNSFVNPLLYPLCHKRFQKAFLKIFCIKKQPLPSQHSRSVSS
UniProt Q9H3N8, whole entry N147W: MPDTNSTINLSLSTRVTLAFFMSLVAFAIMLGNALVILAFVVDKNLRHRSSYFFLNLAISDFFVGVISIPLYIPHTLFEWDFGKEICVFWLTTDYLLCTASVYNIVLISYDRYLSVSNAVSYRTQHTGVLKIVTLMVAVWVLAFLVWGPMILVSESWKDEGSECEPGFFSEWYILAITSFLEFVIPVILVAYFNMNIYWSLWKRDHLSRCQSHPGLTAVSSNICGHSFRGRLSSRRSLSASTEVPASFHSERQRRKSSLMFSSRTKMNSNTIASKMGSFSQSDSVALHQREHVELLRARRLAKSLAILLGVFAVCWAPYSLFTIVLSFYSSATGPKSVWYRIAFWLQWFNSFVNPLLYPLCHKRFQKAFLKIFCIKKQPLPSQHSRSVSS
UniProt Q9H3N8, whole entry F344A: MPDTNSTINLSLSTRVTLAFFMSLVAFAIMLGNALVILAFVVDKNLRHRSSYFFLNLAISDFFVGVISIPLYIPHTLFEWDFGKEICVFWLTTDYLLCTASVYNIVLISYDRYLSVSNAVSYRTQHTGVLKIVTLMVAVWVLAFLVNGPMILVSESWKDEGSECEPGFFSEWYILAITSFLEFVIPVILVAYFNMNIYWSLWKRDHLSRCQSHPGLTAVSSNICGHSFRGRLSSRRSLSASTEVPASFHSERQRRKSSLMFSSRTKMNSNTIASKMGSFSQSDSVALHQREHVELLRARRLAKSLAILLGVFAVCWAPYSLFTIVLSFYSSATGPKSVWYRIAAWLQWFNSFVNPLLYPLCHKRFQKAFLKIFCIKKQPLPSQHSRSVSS
UniProt Q9H3N8, whole entry W348Y: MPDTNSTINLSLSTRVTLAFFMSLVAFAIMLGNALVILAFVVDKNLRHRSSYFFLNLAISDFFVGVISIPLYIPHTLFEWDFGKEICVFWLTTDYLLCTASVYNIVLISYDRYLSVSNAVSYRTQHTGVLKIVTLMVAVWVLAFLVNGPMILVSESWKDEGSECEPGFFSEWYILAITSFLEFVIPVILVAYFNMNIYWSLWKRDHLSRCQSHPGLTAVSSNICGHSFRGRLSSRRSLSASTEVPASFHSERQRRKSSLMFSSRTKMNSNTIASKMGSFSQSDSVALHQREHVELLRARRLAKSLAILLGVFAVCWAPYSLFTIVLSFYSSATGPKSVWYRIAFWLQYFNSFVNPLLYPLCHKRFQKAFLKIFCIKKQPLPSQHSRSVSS
UniProt Q9H3N8, whole entry E182A: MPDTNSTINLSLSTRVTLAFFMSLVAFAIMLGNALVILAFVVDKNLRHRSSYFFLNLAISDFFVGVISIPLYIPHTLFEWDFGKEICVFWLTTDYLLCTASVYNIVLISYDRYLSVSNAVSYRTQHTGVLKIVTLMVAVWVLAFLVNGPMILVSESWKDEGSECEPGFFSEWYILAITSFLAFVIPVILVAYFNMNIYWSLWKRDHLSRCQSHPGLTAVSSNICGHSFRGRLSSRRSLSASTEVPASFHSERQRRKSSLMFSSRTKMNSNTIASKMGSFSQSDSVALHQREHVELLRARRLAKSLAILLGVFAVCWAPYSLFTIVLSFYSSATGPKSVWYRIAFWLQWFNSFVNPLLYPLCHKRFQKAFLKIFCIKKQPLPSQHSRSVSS

Experiments:
Type in all cases: cell-based
[1] = biological target: T1, human H4R F344I mutant (Homo sapiens, UniProt Q9H3N8, F344I); assay: TGFα shedding assay, H4R F344I mutant
T1 construct: a mutant H4R (human, full-length, and untagged); expressed in transfected cells; host or cells: HEK293A
Protocol: (§1) The mutants were prepared using the primers listed in Supplementary Table 2. […] The chimeric Gαq/i1 subunit comprises the Gαq backbone and Gαi1-derived six-amino acid C-terminus and couples with Gi-coupled H4R but induces a Gq-dependent TGFα shedding response. After culturing for 1 day and incubating at 37 °C in a 5% CO2 incubator, the transfected cells were harvested by trypsinization, neutralized with Dulbecco’s modified Eagle’s medium containing 10% fetal calf serum (FCS) and penicillin–streptomycin, washed once with Hank’s balanced salt solution (HBSS) containing 5 mM of HEPES (pH 7.4), and resuspended in 6 mL of the HEPES-containing HBSS. The cell suspension was seeded into a 96-well plate at a volume of […] per well (typically, 48 wells per transfected cells) and incubated for 30 min in the CO2 incubator. Test compounds (10×, diluted in 0.01% BSA and 5 mM of HEPES-containing HBSS, […] volume) were added to duplicate wells and incubated for 1 h. After centrifugation, the conditioned medium ([…]) was transferred to an empty 96-well plate. AP reaction solution [10 mM of p-nitrophenylphosphate (p-NPP), 120 mM of Tris–HCl (pH 9.5), 40 mM of NaCl, and 10 mM of MgCl2] was dispensed into the cell culture plates and plates containing conditioned media ([…]). Absorbance was measured at 405 nm before and after a 1-h incubation period at 25 °C using a microplate reader (iMark™ Microplate Absorbance Reader; BioRad). Ligand-induced AP-TGFα release was calculated as previously described. The vehicle-treated AP-TGFα release signal was set as a baseline unless otherwise specified. AP-TGFα release signals were fitted with a four-parameter sigmoidal concentration-response curve, from which EC50 and Emax values were obtained, using GraphPad Prism 9 software (GraphPad Prism). Negative values of logarithmically transformed EC50 values (pEC50) were used to calculate the mean and standard error of independent experiments.
(§2) All functional study data were analyzed using Prism 9 (GraphPad) and are presented as mean ± standard error of the mean (SEM) of three independent experiments. Statistical analyses were performed using Prism 9 (GraphPad) with one-way analysis of variance followed by Dunnett’s post-hoc test. Values with p < 0.05 are considered statistically significant.

[2] = biological target: T2, human H4R C98A mutant (Homo sapiens, UniProt Q9H3N8, C98A); assay: TGFα shedding assay, H4R C98A mutant
T2 construct: a mutant H4R (human, full-length, and untagged); expressed in transfected cells; host or cells: HEK293A
Protocol: as §1, §2

[3] = biological target: T3, human H4R Q347A mutant (Homo sapiens, UniProt Q9H3N8, Q347A); assay: TGFα shedding assay, H4R Q347A mutant
T3 construct: a mutant H4R (human, full-length, and untagged); expressed in transfected cells; host or cells: HEK293A
Protocol: as §1, §2

[4] = biological target: T4, human H4R N147A mutant (Homo sapiens, UniProt Q9H3N8, N147A); assay: TGFα shedding assay, H4R N147A mutant
T4 construct: a mutant H4R (human, full-length, and untagged); expressed in transfected cells; host or cells: HEK293A
Protocol: as §1, §2

[5] = biological target: T5, human H4R N147W mutant (Homo sapiens, UniProt Q9H3N8, N147W); assay: TGFα shedding assay, H4R N147W mutant
T5 construct: a mutant H4R (human, full-length, and untagged); expressed in transfected cells; host or cells: HEK293A
Protocol: as §1, §2

[6] = biological target: T6, human H4R F344A mutant (Homo sapiens, UniProt Q9H3N8, F344A); assay: TGFα shedding assay, H4R F344A mutant
T6 construct: a mutant H4R (human, full-length, and untagged); expressed in transfected cells; host or cells: HEK293A
Protocol: as §1, §2

[7] = biological target: T7, human H4R W348Y mutant (Homo sapiens, UniProt Q9H3N8, W348Y); assay: TGFα shedding assay, H4R W348Y mutant
T7 construct: a mutant H4R (human, full-length, and untagged); expressed in transfected cells; host or cells: HEK293A
Protocol: as §1, §2

[8] = biological target: T8, human H4R E182A mutant (Homo sapiens, UniProt Q9H3N8, E182A); assay: TGFα shedding assay, H4R E182A mutant
T8 construct: a mutant H4R (human, full-length, and untagged); expressed in transfected cells; host or cells: HEK293A
Protocol: as §1, §2

[9] = Histamine (M) -7, raw replicates
[10] = Histamine (M) -8, raw replicates
[11] = Histamine (M) -9, raw replicates
[12] = Histamine (M) -10, raw replicates
[13] = Histamine (M) -5, raw replicates
[14] = Histamine (M) -6, raw replicates

NCCc1c[nH]cn1 [Histamine, histamine]
Shedding assay [1, 9]: -3.025 and -1.938 and -3.417 and -3.365 and -2.54 and -2.233 and -3.36 and -5.247 and -2.2344
Shedding assay [1, 10]: -2.0091 and -4.306 and -1.2425 and -4.421 and -2.437 and -3.33 and -3.3208 and -4.423 and -2.3971
Shedding assay [1, 11]: -3.448 and -0.4831 and -0.3343 and -1.984 and -3.095 and -2.916 and -2.654 and -9.357 and -4.253
Shedding assay [1, 12]: -3.113 and -3.215 and -0.2142 and -3.451 and -2.531 and -1.188 and -2.002 and -5.836 and -1.4936
Shedding assay [2, 13]: 14.0761 and 13.0306 and 15.3801 and 14.3097 and 16.1295 and 15.6589 and 11.2456 and 17.6619 and 19.1026
Shedding assay [2, 14]: 5.435 and 5.689 and 6.993 and 3.179 and 8.045 and 5.041 and 11.1173 and 5.623 and 9.968
Shedding assay [2, 9]: 1.098 and 0.1734 and 2.653 and -0.7217 and 0.4464 and -16.3414 and 3.994 and -4.307 and 1.4085
Shedding assay [2, 10]: 0.9963 and -0.6657 and 1.892 and -3.236 and -0.7519 and -10.6874 and 4.811 and -6.9 and 1.124
Shedding assay [2, 11]: 0.2357 and -0.08985 and 1.169 and -4.604 and 1.265 and 3.021 and 3.385 and -3.516 and 0.4855
Shedding assay [2, 12]: -0.2955 and 1.5585 and 1.271 and -0.5371 and 0.2242 and -1.083 and 3.32 and -0.4573 and -1.124
Shedding assay [3, 13]: 10.8027 and 9.03 and 9.675 and 13.1375 and 8.746 and 6.385 and 8.391 and 8.279 and 8.707
Shedding assay [3, 14]: 4.8543 and 6.513 and 5.17 and 9.737 and 4.517 and 2.289 and 4.07 and 4.748 and 4.438
Shedding assay [3, 9]: 1.146 and 0.6921 and -0.02355 and 1.969 and 0.4712 and -0.1317 and -0.8522 and -0.5678 and 0.5687
Shedding assay [3, 10]: -0.2074 and -2.115 and -0.1521 and 1.236 and -1.238 and -0.7929 and -1.557 and -2.637 and -0.05317
Shedding assay [3, 11]: 0.2803 and -1.318 and 0.05247 and 0.2039 and -3.113 and -1.297 and -0.5157 and -2.308 and -0.4963
Shedding assay [3, 12]: 0.8267 and -3.901 and 1.854 and 1.518 and -2.504 and -1.099 and 0.6286 and -2.392 and -0.1229
Shedding assay [4, 13]: 10.4061 and 12.4445 and 8.396 and 15.0426 and 16.8382 and 15.0732 and 11.7364 and 15.7804 and 15.0385
Shedding assay [4, 14]: 5.741 and 10.8609 and 1.664 and 9.016 and 12.138 and 9.834 and 9.461 and 12.0236 and 12.9763
Shedding assay [4, 9]: 1.655 and 3.5384 and -2.249 and 3.528 and 2.95 and 2.395 and 1.043 and 2.58 and 4.1364
Shedding assay [4, 10]: -3.407 and -1.5823 and 1.169 and 0.7407 and -1.206 and 0.6255 and -2.598 and 0.05751 and -1.889
Shedding assay [4, 11]: -4.666 and 0.3943 and 0.584 and 1.4037 and -0.1249 and 0.4736 and -2.098 and -1.359 and -3.573
Shedding assay [4, 12]: -2.611 and 1.127 (2×) and 1.607 and -1.867 and -0.2252 and -1.705 and 0.343 and -2.622
Shedding assay [5, 13]: 5.381 and 9.222 and 9.42 and 10.1239 and 15.5017 and 13.2278 and 5.507 and 4.882 and 4.724
Shedding assay [5, 14]: 2.032 and -0.8561 and 1.551 and -0.1708 and 6.864 and 2.726 and 0.302 and -0.9008 and -0.6812
Shedding assay [5, 9]: 0.7568 and -4.789 and -0.4819 and -0.7461 and 3.628 and 1.9087 and -0.5968 and -1.731 and -1.483
Shedding assay [5, 10]: 0.1994 and -4.789 and 0.8514 and -1.102 and 2.7386 and 0.1171 and -0.4388 and -1.4186 and -2.027
Shedding assay [5, 11]: 0.5359 and -5.097 and 0.1294 and -0.9018 and 1.429 and 0.8614 and -1.72 and -5.799 and -1.852
Shedding assay [5, 12]: -0.6476 and -0.9197 and -1.455 and -0.06231 and 2.797 and 1.015 and -0.4662 and -0.7572 and -1.335
Shedding assay [6, 13]: 0.5912 and 0.4542 and 2.3949 and -3.641 and -1.642 and -2.1381 and -0.7298 and -3.314 and -1.138
Shedding assay [6, 14]: 0.1401 and -1.0399 and -8.5597 and -5.6623 and -2.241 and -2.6059 and 0.3076 and -1.534 and -0.8996
Shedding assay [6, 9]: 0.4346 and -1.003 and -7.483 and -3.284 and -3.011 and -4.028 and -0.255 and -1.709 and -2.171
Shedding assay [6, 10]: -1.431 and -1.551 and 4.515 and -1.339 and -4.788 and -2.41 and -1.418 and -1.409 and -2.765
Shedding assay [6, 11]: -4.473 and 0.21 and 3.934 and -3.2 and -2.186 and -3.849 and -2.339 and -2.54 and -2.379
Shedding assay [6, 12]: -2.711 and 0.6997 and 7.8841 and -3.046 and -3.762 and -2.41 and -1.549 and -0.7743 and -2.561
Shedding assay [7, 13]: 4.534 and 3.03 and 6.089 and 6.27 and 3.1019 and 5.039 and 7.524 and 2.754 and 7.0944
Shedding assay [7, 14]: -0.1364 and -0.4628 and -0.7151 and 0.9647 and 4.211 and 2.064 and 2.4 and 3.819 and -1.068
Shedding assay [7, 9]: -1.983 and -1.769 and -11.5329 and -1.638 and 2.052 and -16.5326 and -0.3873 and 1.408 and -20.9627
Shedding assay [7, 10]: -1.851 and -3.398 and -10.5867 and -0.4897 and 1.737 and -11.9992 and -0.8184 and 1.351 and -10.3825
Shedding assay [7, 11]: -1.681 and -1.637 and -3.976 and -1.436 and 1.388 and -5.965 and -2.874 and 1.724 and -5.97
Shedding assay [7, 12]: -3.023 and 0.1816 and -1.235 and -2.84 and 2.309 and -0.4417 and -4.659 and 1.259 and -2.736
Shedding assay [8, 13]: 1.328 and 5.307 and 1.357 and 5.178 and 3.4 and 3.189 and -3.397 and -2.51 and -6.211
Shedding assay [8, 14]: -1.637 and 4.664 and -0.3924 and 3.833 and 0.8024 and 4.565 and -4.444 and -0.8777 and -4.665
Shedding assay [8, 9]: -3.2107 and 5.979 and -2.629 and 1.617 and -2.7 and 2.487 and -4.918 and -0.2054 and -16.7918
Shedding assay [8, 10]: -7.451 and 4.305 and -4.84 and 2.227 and 0.4778 and 1.747 and -4.735 and -2.8754 and -2.8
Shedding assay [8, 11]: -9.941 and 4.031 and -3.258 and 1.3455 and 0.3468 and 1.538 and -10.5794 and -1.643 and -1.68
Shedding assay [8, 12]: 0.3311 and 3.869 and -1.359 and 0.9543 and 0.691 and 0.04371 and -5.087 and 0.6903 and -0.6579
